Experimental findings from publication PMC7862700 are described below.

Sequences of proteins named here, by UniProt entry; tags and fusion partners are left off. A change or cut given only in a name is not applied to a line headed by its entry.
UniProt Q00613: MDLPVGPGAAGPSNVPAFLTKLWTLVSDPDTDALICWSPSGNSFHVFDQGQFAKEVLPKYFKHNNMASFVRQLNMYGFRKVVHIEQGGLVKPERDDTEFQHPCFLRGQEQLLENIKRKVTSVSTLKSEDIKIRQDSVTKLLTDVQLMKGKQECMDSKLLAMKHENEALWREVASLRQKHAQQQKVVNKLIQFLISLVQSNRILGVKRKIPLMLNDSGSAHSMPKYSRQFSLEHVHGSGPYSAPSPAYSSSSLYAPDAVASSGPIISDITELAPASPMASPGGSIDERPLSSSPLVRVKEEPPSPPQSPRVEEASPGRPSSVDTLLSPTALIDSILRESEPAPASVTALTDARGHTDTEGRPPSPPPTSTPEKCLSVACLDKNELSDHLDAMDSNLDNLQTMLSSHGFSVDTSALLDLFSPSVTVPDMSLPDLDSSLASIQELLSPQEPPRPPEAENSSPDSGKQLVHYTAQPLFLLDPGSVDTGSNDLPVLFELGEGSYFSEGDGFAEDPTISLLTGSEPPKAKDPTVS

The entries are a selection whose mix differs from that of the whole data set. For part of these data: At the low end of the ranking, values are background and their order means little. The list shows a part of the results. For part of these data: The source does not settle which construct or isoform was used.

The target of one assay is HSF1 (UniProt Q00613). As to the kind of experiment: DAPPL (digital affinity profiling via proximity ligation, sequencing). Particulars: 10 mM Tris-HCl pH 7.5, 50 mM NaCl, 1 mM DTT, 4% glycerol, room temperature, 30 min; GST-TFs on glutathione beads, 16-mer random dsDNA library, 0.1% …; high values mean tight binding; double strand, one strand shown; scale: fold enrichment (6-mer frequency, TF over GST control).
In the case of TCCGTG, the binding signal amounted to 0.379.

GTGAGA had a binding signal of 0.283.

Regarding GCAAGT, the binding signal was 0.703.

Turning to AGTCCA, the binding signal stood at 0.68.

Turning to GTCGGG, the binding signal was determined as 0.19.

Consider CGGTTG, for which the binding signal amounted to 0.561.

The sequence GACAGC gave a binding signal of 0.625.

As to GAACGC, the binding signal is 0.73.

Sequence AGGGCA yielded a binding signal of 0.687.

With CCCAGT, the binding signal amounted to 0.589.

CAGAGA gave a binding signal of 0.819.

CAGGTT showed a binding signal of 0.64.

CAACGG displayed a binding signal of 0.737.

CAGTCC showed a binding signal of 0.54.

Consider ACCCAG, for which the binding signal was 0.748.

The sequence AAGGTG had a binding signal of 0.856.

For GTTAGT, the binding signal stood at 0.773.

GGAATC: the binding signal came to 0.932.

AGGCCG yielded a binding signal of 0.412.

In turn, AGGGGT returned a binding signal of 0.72.

GCGGCG gave a binding signal of 0.607.

On to GGAGAC, for which the binding signal was determined as 0.137.

With GAAGGA, the binding signal amounted to 0.734.

Turning to TAGGGA, the binding signal was determined as 0.867.

In turn, AGCCTG displayed a binding signal of 0.887.

GAGAGA came in with a binding signal of 0.584.

As to AAGACA, the binding signal was found to be 0.908.

ACAGCG: the binding signal turned out to be 0.623.

Regarding TAGACC, the binding signal was determined as 0.911.

Turning to CGCGTG, the binding signal was 0.562.

Regarding GTGAAA, the binding signal was 0.734.

Sequence GAGAGT displayed a binding signal of 0.376.

As to TTGGAG, the binding signal came out at 0.554.

On to GGGTCC, for which the binding signal is 0.627.

GAGACA: the binding signal was 0.347.

On to GGGGAT, for which the binding signal turned out to be 0.828.

As to ACGGGA, the binding signal was determined as 0.529.

For the sequence AGGCGG, the binding signal worked out at 0.193.

The sequence ATTGGA had a binding signal of 0.954.

The next assay concerns the target T1, ELF2 (UniProt Q15723).
T1 sequence: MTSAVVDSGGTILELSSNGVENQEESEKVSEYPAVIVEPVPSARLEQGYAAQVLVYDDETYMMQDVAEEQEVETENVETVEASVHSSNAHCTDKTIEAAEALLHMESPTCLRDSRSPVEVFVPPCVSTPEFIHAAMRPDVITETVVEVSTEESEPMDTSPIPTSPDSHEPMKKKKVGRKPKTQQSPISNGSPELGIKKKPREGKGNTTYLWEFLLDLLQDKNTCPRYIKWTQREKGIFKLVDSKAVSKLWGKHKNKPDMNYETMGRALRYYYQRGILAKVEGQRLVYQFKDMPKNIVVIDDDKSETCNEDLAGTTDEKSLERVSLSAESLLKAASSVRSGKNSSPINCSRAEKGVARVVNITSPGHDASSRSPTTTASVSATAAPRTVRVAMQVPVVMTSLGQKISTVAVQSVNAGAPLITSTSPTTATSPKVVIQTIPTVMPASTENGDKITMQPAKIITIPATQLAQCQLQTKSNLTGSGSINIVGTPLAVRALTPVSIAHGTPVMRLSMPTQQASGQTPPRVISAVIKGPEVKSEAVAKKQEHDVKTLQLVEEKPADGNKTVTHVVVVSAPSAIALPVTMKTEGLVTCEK
Described as above. Particulars: 10 mM Tris-HCl pH 7.5, 50 mM NaCl, 1 mM DTT, 4% glycerol, room temperature, 30 min; GST-TFs on glutathione beads, 16-mer random dsDNA library, 0.1% …; high values mean tight binding; double strand, one strand shown; scale: fold enrichment (6-mer frequency, TF over GST control).
Sequence TCCGTG yielded a binding signal of 0.61.

GTGAGA showed a binding signal of 0.296.

As for GCAAGT, the binding signal came to 0.78.

Sequence AGTCCA returned a binding signal of 0.688.

GTCGGG registered a binding signal of 0.225.

On to CGGTTG, for which the binding signal is 0.793.

With GACAGC, the binding signal is 0.706.

GAACGC displayed a binding signal of 0.733.

Sequence AGGGCA came in with a binding signal of 0.8.

As for CCCAGT, the binding signal was 0.645.

In the case of CAGAGA, the binding signal was determined as 0.579.

As to CAGGTT, the binding signal was determined as 0.67.

CAACGG gave a binding signal of 0.93.

For CAGTCC, the binding signal amounted to 0.617.

ACCCAG returned a binding signal of 0.713.

Take AAGGTG: the binding signal is 0.864.

As for GTTAGT, the binding signal was found to be 0.788.

As for GGAATC, the binding signal is 0.795.

Turning to AGGCCG, the binding signal came to 0.462.

Sequence AGGGGT returned a binding signal of 0.81.

For the sequence GCGGCG, the binding signal amounted to 0.721.

Turning to GGAGAC, the binding signal came to 0.144.

Turning to GAAGGA, the binding signal worked out at 0.821.

The sequence TAGGGA had a binding signal of 0.811.

AGCCTG displayed a binding signal of 0.837.

Regarding GAGAGA, the binding signal came out at 0.409.

AAGACA returned a binding signal of 0.98.

The sequence ACAGCG showed a binding signal of 0.797.

As for TAGACC, the binding signal came out at 0.83.

In turn, CGCGTG yielded a binding signal of 0.631.

For the sequence GTGAAA, the binding signal is 0.725.

As for GAGAGT, the binding signal is 0.343.

The sequence TTGGAG displayed a binding signal of 0.499.

The sequence GGGTCC registered a binding signal of 0.805.

Turning to GAGACA, the binding signal stood at 0.357.

For GGGGAT, the binding signal was determined as 0.632.

The sequence ACGGGA had a binding signal of 0.559.

Sequence AGGCGG came in with a binding signal of 0.304.

Regarding ATTGGA, the binding signal turned out to be 0.882.
